Source: PubChem BioAssay AID1053133 (Broad Institute, 2014).

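Vaccinia-infected cells with a two-color viral stage reporter; Venus fluorescence read on a plate reader; the cell line is not named here; timing not stated here. The test concentration is not given here. Percent change in Venus reporter signal; lower (more negative) values mean stronger inhibition of that viral stage.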

Values are in %. How 0% and 100% were set is not given here. Common to all entries: measured here: Venus reporter, other viral stage. This is a side read-out of the assay, for part of the compounds, not drawn at random.

* COc1cccc(-c2ccc3c(c2)[C@H]2[C@H](CCN2C(=O)c2ccc(F)cc2)[C@H](CO)N3)c1 : activity change (Venus) -11.78%
* C[C@H]1CN([C@@H](C)CO)C(=O)c2cccc(N(C)C)c2O[C@@H]1CN(C)C(=O)Nc1cccc2ccccc12 : activity change (Venus) -40.18%
* Cc1ccc(OC(=O)N(C)C[C@H]2OCc3ccccc3-c3c(n(C)c4ccccc34)C(=O)N([C@H](C)CO)C[C@@H]2C)cc1 : activity change (Venus) -45.35%
* C[C@@H]1CN([C@@H](C)CO)C(=O)Cc2cc(NC(=O)CCCN(C)C)ccc2O[C@@H]1CN(C)Cc1ccc(Oc2ccccc2)cc1 : activity change (Venus) -60.6%
* C[C@H]1CCCCO[C@H](CN(C)Cc2ccc(C(F)(F)F)cc2)[C@@H](C)CN([C@@H](C)CO)C(=O)c2cc(NS(=O)(=O)c3ccc(F)cc3)ccc2O1 : activity change (Venus) -73.64%
* COc1ccc(S(=O)(=O)Nc2ccc3c(c2)C(=O)N(C)C[C@@H](OC)[C@H](C)CN(Cc2cc(F)ccc2F)[C@H](C)CO3)cc1 : activity change (Venus) -41.08%
* Cc1ccc(S(=O)(=O)Nc2ccc3c(c2)CC(=O)N([C@H](C)CO)C[C@H](C)[C@@H](CN(C)Cc2ccc(Oc4ccccc4)cc2)O3)cc1 : activity change (Venus) -103.9%
* C[C@H]1CCCCO[C@H](CN(C)Cc2ccc3c(c2)OCO3)[C@@H](C)CN([C@@H](C)CO)C(=O)c2cc(NC(=O)Nc3ccc(F)cc3)ccc2O1 : activity change (Venus) -56.69%
* C/C=C/c1ccc(C2[C@@H]3CN(Cc4ccc5c(c4)OCO5)C[C@H]2N3)cc1 (stereo partly shown) : activity change (Venus) -43.22%
* Cc1ccccc1-c1ccc([C@H]2[C@@H](CO)N3CCCCN(C(=O)Nc4ccc(F)cc4)C[C@@H]23)cc1 : activity change (Venus) -44.98%
* C[C@@H]1CN([C@@H](C)CO)C(=O)c2cccc(NC(=O)c3nc4ccccc4s3)c2O[C@@H]1CN(C)CC1CCCCC1 : activity change (Venus) -53.72%
* C/C=C/c1ccc([C@H]2[C@@H](CO)N3CCCCN(S(=O)(=O)c4ccc(OC)cc4)C[C@H]23)cc1 : activity change (Venus) -28.25%
* O=C(Cc1cccnc1)N1CCCCN2[C@H](CO)[C@@H](c3ccc(C#CC4CCCC4)cc3)[C@@H]2C1 : activity change (Venus) -30.13%
* CC(=O)N(C[C@H]1N[C@H](CO)[C@H]1c1ccc(-c2ccccc2)cc1)C(C)C : activity change (Venus) -34.03%
* O=C(c1ccc(F)cc1)N1CC(=O)N2[C@H](CO)[C@H](c3ccc(C#CCC4CCCC4)cc3)[C@@H]2C1 : activity change (Venus) -46.1%
* C[C@H]1CN([C@@H](C)CO)C(=O)c2cc(NC(=O)Nc3ccc(C(F)(F)F)cc3)ccc2O[C@H]1CN(C)Cc1ccc(C(F)(F)F)cc1 : activity change (Venus) -28.92%
* C[C@@H]1CN([C@H](C)CO)C(=O)c2cc(/C=C/c3ccccc3)cnc2O[C@@H]1CN(C)S(=O)(=O)c1ccccc1F : activity change (Venus) -22.17%
* COc1ccc(NC(=O)Nc2ccc3c(c2)C(=O)N([C@@H](C)CO)C[C@@H](C)[C@@H](CN(C)Cc2ccccc2)OCCCC[C@H](C)O3)cc1 : activity change (Venus) -35.19%

2 of the entries, repeated:

| structure | activity change (Venus) (%) |
|---|---|
| `C/C=C/c1ccc(C2[C@@H]3CN(Cc4ccc5c(c4)OCO5)C[C@H]2N3)cc1` (stereo partly shown) | -43.22 |
| `COc1ccc(S(=O)(=O)Nc2ccc3c(c2)C(=O)N(C)C[C@@H](OC)[C@H](C)CN(Cc2cc(F)ccc2F)[C@H](C)CO3)cc1` | -41.08 |